Test results: the supplement of paper PMC10849652
The other results are listed elsewhere or left out.

By UniProt entry, the sequences of proteins in these tests, tags left out. Where a name states a change or a piece, a line headed by the entry shows the natural chain unless it says otherwise.
UniProt P11021: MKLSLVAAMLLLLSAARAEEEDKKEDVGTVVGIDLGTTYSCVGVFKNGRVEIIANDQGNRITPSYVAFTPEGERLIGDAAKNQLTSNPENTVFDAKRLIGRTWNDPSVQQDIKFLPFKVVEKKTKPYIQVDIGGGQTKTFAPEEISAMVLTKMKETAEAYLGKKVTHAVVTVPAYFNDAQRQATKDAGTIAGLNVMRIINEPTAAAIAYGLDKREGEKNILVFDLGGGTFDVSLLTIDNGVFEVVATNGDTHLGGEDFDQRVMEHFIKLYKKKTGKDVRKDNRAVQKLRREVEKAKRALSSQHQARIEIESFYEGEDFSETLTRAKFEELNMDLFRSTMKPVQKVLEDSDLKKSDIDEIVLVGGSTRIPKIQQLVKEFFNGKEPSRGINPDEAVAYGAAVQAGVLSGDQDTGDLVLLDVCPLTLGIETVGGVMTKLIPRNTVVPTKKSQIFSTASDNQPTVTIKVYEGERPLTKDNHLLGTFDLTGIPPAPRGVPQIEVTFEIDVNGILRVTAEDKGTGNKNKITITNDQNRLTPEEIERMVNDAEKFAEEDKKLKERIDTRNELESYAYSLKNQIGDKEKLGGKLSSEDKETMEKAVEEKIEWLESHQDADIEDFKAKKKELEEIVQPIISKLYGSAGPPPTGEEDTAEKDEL
UniProt Q5GLZ8: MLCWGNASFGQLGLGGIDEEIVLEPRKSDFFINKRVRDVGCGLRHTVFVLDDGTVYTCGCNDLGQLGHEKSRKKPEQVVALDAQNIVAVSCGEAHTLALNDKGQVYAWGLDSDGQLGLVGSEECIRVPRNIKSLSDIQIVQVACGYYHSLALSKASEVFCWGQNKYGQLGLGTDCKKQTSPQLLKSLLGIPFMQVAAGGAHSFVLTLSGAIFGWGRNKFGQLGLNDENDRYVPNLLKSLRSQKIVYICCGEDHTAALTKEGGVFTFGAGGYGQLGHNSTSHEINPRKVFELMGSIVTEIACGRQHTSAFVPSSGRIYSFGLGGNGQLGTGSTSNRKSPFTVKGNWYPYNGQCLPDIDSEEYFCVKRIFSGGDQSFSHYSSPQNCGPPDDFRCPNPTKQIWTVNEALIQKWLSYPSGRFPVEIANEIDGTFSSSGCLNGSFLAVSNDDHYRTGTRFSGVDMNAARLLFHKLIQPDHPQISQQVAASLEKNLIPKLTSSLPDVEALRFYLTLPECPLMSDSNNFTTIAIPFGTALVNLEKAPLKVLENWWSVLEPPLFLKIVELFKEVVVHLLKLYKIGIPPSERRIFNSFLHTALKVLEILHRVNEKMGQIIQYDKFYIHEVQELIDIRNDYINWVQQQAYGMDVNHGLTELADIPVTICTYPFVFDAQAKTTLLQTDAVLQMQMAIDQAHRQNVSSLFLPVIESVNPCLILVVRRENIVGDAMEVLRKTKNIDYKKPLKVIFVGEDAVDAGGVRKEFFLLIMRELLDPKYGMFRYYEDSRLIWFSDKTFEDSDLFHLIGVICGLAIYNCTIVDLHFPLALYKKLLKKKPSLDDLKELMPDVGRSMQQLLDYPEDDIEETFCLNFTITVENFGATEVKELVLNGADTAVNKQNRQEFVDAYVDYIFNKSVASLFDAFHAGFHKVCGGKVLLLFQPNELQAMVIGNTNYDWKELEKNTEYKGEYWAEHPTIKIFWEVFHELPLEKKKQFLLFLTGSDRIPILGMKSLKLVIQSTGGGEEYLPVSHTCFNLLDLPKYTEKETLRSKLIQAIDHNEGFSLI
UniProt Q9NWT6: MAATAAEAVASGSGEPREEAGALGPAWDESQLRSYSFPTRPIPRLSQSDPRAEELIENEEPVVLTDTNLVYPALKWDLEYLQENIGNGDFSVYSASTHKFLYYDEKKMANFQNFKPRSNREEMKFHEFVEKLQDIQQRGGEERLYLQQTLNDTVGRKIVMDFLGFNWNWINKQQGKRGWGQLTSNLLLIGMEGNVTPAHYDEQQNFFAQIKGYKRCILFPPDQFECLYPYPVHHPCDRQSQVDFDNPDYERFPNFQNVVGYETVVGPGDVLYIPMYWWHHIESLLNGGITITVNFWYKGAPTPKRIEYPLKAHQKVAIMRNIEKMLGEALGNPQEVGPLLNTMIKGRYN
UniProt O14964, whole entry, looked up: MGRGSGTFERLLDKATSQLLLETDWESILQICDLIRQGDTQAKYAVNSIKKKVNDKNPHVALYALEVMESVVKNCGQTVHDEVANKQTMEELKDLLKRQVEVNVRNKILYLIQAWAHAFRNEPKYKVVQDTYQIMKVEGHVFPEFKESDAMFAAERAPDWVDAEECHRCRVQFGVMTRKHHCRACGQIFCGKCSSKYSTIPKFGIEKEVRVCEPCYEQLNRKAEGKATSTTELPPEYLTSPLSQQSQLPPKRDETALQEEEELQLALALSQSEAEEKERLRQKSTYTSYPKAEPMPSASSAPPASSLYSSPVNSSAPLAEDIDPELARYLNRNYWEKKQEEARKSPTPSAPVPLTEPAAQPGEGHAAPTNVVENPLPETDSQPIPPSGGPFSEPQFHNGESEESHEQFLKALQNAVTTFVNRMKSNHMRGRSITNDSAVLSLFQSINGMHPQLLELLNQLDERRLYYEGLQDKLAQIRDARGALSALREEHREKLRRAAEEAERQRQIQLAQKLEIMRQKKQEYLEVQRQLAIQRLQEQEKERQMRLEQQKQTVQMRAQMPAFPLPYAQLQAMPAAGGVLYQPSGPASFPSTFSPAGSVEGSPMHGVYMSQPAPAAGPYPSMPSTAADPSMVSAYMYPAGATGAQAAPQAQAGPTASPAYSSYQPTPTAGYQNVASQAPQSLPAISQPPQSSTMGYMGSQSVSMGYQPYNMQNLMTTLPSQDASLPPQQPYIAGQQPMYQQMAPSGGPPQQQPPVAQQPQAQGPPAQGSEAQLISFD
UniProt Q8WVB3: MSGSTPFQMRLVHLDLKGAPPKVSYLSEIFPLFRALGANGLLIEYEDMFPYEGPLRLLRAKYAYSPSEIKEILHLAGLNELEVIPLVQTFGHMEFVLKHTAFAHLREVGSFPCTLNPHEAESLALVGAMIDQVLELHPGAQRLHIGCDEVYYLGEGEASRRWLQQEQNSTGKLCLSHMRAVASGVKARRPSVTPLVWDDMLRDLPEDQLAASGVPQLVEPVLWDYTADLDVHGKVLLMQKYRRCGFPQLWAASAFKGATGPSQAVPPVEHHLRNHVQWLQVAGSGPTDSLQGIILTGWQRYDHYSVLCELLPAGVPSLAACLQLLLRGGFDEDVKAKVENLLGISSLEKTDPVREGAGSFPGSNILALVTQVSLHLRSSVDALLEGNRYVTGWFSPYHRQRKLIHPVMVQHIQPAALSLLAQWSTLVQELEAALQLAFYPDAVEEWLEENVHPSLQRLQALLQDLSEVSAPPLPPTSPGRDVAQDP
UniProt P55795: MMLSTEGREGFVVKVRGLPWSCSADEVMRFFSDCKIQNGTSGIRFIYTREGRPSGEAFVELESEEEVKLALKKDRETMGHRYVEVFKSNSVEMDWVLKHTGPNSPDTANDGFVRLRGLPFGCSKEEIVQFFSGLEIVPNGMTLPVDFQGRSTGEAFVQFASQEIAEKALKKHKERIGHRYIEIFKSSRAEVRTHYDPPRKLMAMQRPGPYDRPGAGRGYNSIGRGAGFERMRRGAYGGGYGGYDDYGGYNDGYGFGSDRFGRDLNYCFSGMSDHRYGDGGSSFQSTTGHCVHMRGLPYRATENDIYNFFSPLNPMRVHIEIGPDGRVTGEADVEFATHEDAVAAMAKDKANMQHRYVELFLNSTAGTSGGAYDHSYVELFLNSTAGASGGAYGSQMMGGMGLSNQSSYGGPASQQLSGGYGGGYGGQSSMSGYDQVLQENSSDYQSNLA
UniProt P56937: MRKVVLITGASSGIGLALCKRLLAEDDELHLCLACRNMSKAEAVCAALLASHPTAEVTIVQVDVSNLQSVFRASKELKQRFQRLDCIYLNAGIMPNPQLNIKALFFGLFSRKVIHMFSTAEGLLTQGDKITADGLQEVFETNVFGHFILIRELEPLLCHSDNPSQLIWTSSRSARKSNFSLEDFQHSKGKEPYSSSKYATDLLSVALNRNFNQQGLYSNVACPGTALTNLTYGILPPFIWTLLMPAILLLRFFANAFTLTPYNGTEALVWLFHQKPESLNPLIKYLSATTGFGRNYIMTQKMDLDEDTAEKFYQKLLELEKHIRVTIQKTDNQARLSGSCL
UniProt Q5T447: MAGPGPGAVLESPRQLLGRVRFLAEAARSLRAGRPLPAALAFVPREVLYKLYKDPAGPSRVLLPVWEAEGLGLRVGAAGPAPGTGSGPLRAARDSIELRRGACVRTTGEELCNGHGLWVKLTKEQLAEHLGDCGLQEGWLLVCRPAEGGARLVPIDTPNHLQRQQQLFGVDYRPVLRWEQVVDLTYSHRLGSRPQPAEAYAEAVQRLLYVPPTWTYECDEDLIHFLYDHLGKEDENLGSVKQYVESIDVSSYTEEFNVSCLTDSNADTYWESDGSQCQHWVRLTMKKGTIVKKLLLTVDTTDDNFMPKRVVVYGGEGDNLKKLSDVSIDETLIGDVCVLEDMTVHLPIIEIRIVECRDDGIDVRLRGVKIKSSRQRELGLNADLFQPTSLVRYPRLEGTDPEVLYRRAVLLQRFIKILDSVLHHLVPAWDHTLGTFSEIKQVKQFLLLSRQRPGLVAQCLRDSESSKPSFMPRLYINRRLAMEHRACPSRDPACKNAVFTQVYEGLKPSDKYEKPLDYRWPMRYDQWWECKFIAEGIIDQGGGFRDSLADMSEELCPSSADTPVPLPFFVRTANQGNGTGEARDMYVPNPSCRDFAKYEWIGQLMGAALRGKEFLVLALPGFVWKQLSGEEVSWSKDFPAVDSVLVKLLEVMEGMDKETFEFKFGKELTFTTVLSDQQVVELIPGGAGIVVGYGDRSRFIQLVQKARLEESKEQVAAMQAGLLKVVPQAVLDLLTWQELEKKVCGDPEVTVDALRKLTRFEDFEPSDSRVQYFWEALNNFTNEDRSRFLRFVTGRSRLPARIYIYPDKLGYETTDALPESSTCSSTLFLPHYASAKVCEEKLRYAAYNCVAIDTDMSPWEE
UniProt Q9UGU5: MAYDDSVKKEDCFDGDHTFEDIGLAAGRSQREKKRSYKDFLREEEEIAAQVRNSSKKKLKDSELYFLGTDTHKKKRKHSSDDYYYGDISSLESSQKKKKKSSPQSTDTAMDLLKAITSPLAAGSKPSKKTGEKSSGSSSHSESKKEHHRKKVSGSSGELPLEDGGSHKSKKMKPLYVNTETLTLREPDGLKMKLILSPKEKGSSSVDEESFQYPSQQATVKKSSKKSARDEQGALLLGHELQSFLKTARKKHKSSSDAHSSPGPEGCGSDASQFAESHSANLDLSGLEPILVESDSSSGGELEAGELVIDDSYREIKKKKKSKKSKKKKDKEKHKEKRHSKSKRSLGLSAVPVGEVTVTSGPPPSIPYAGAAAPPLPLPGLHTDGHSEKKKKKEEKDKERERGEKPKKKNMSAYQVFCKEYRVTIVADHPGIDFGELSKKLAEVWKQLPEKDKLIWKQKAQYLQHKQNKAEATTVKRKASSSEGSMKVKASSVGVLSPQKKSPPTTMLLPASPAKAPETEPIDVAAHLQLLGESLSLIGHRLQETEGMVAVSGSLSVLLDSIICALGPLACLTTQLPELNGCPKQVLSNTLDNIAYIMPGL
UniProt P08397: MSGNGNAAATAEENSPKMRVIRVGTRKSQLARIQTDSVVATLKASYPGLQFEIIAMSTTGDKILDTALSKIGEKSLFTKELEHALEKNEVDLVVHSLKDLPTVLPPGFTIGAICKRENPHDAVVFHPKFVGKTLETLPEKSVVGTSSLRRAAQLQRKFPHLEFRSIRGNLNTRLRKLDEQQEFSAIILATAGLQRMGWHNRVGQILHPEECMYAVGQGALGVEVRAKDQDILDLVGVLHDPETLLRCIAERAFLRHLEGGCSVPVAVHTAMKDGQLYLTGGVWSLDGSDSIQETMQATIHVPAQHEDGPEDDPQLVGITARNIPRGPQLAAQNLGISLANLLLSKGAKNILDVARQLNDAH
UniProt Q9Y5Z4: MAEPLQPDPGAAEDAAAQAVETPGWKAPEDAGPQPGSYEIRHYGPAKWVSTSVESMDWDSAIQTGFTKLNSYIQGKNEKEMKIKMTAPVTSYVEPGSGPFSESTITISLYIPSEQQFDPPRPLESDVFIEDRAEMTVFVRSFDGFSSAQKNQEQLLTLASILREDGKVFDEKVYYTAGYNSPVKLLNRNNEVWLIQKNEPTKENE
UniProt P09651: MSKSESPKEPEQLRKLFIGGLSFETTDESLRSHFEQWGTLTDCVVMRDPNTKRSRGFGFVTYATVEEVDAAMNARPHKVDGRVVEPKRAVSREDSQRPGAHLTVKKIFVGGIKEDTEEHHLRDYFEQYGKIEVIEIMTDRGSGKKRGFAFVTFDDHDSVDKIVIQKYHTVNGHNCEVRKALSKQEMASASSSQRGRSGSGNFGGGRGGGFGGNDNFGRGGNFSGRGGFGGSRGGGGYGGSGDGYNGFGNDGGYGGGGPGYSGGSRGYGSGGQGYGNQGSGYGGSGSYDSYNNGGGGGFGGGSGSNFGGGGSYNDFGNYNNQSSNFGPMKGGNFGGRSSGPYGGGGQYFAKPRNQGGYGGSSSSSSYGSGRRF

Assays:
Test in all cases: log2 fold change, soluble protein after heating vs DMSO (PISA); higher = thermal stabilisation; K562 lysate, 10 uM; active = over 0.2 and 3.5 SD of the protein, either way, in both replicates (recomputed)
[1] = compound: NCC(=O)Nc1ccc(-n2nc(C(F)(F)F)cc2-c2ccc3c(ccc4ccccc43)c2)cc1
In short: (§1)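 Quantification was by TMTpro 16plex LC-MS/MS with equalised channel sums, applied to the supernatant after 21,000xg for 90 min. Samples were crude K562 extract at 1 mg/mL protein in PBS pH 7.4 with 1 mM MgCl2, treated with 10 μM compound for 30 min, heated for 3 min across 48°C-58°C, pooled and brought to 0.5% NP-40 at 4°C. Values are log-two fold changes in thermal stability relative to solvent controls, from duplicates.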

vorinostat = compound: O=C(CCCCCCC(=O)Nc1ccccc1)NO [vorinostat]
In short: as §1

silmitasertib = compound: O=C(O)c1ccc2c(c1)nc(Nc1cccc(Cl)c1)c1ccncc12 [silmitasertib]
In short: as §1

[2] = compound: O=C1NC(=O)C(c2cnc3ccccn23)=C1c1cn2c3c(cc(F)cc13)CN(C(=O)N1CCCCC1)CC2
In short: as §1

entospletinib = compound: c1cn2cc(-c3ccc4cn[nH]c4c3)nc(Nc3ccc(N4CCOCC4)cc3)c2n1 [entospletinib]
In short: as §1

Target: HSPA5 (UniProt P11021)
- log2 fold change [1]: inactive: -0.034
- log2 fold change (vorinostat): inactive: 0.084
- log2 fold change (silmitasertib): inactive: 0.012
- log2 fold change [2]: inactive: -0.061
- log2 fold change (entospletinib): inactive: -0.003

Target: HERC4 (UniProt Q5GLZ8)
- log2 fold change [1]: inactive: 0.003
- log2 fold change (vorinostat): inactive: 0.012
- log2 fold change (silmitasertib): inactive: -0.012
- log2 fold change [2]: inactive: 0.002
- log2 fold change (entospletinib): inactive: -0.009

Target: HIF1AN (UniProt Q9NWT6)
- log2 fold change [1]: inactive: 0.035
- log2 fold change (vorinostat): inactive: 0.039
- log2 fold change (silmitasertib): inactive: 0.006
- log2 fold change [2]: inactive: -0.149
- log2 fold change (entospletinib): inactive: -0.001

Target: HPS3 (UniProt Q969F9)
- log2 fold change [1]: inactive: -0.167
- log2 fold change (vorinostat): inactive: -0.282
- log2 fold change (silmitasertib): inactive: 0.025
- log2 fold change [2]: inactive: 0.207
- log2 fold change (entospletinib): inactive: -0.237

Target: HNRNPM (UniProt P52272)
- log2 fold change [1]: inactive: -0.008
- log2 fold change (vorinostat): active: -0.235
- log2 fold change (silmitasertib): inactive: 0.022
- log2 fold change [2]: inactive: -0.05
- log2 fold change (entospletinib): inactive: 0.015

Target: HGS (UniProt O14964)
- log2 fold change [1]: inactive: 0
- log2 fold change (vorinostat): inactive: 0.049
- log2 fold change (silmitasertib): inactive: -0.006
- log2 fold change [2]: inactive: -0.006
- log2 fold change (entospletinib): inactive: -0.001

Target: HEXD isoform 2 (UniProt Q8WVB3)
- log2 fold change [1]: inactive: -0.133
- log2 fold change (vorinostat): inactive: -0.215
- log2 fold change (silmitasertib): inactive: -0.036
- log2 fold change (entospletinib): inactive: 0.216

Target: HNRNPH2 (UniProt P55795)
- log2 fold change [1]: inactive: -0.008
- log2 fold change (vorinostat): active: -0.243
- log2 fold change (silmitasertib): inactive: 0.005
- log2 fold change [2]: inactive: -0.054
- log2 fold change (entospletinib): inactive: 0.002

Target: HSD17B7 (UniProt P56937)
- log2 fold change [1]: inactive: -0.097
- log2 fold change (vorinostat): inactive: -0.24
- log2 fold change (silmitasertib): inactive: 0.009
- log2 fold change (entospletinib): inactive: 0.072

Target: HK1 isoform 2 (UniProt P19367)
- log2 fold change [1]: inactive: 0.012
- log2 fold change (vorinostat): active: -0.264
- log2 fold change (silmitasertib): inactive: 0.028
- log2 fold change [2]: inactive: -0.002
- log2 fold change (entospletinib): inactive: 0.011

Target: HECTD3 (UniProt Q5T447)
- log2 fold change [1]: inactive: -0.015
- log2 fold change (vorinostat): active: -0.253
- log2 fold change (silmitasertib): inactive: 0.109
- log2 fold change [2]: inactive: -0.02
- log2 fold change (entospletinib): inactive: 0.022

Target: HMGXB4 (UniProt Q9UGU5)
- log2 fold change [1]: inactive: -0.04
- log2 fold change (vorinostat): inactive: 0.317
- log2 fold change (silmitasertib): inactive: -0.208
- log2 fold change (entospletinib): inactive: -0.18

Target: HNRNPUL1 (UniProt Q9BUJ2)
- log2 fold change [1]: inactive: -0.02
- log2 fold change (vorinostat): inactive: 0.122
- log2 fold change (silmitasertib): inactive: 0.012
- log2 fold change [2]: inactive: -0.022
- log2 fold change (entospletinib): inactive: -0.02

Target: HMBS (UniProt P08397)
- log2 fold change [1]: inactive: -0.002
- log2 fold change (vorinostat): inactive: 0.136
- log2 fold change (silmitasertib): inactive: -0.02
- log2 fold change [2]: inactive: 0.017
- log2 fold change (entospletinib): inactive: 0.028

Target: HIST2H2BF isoform 2 (UniProt Q5QNW6)
- log2 fold change [1]: inactive: 0.012
- log2 fold change (vorinostat): inactive: 0.098
- log2 fold change (silmitasertib): inactive: 0
- log2 fold change [2]: inactive: 0.009
- log2 fold change (entospletinib): inactive: -0.012

Target: HPCAL1 (UniProt P37235)
- log2 fold change [1]: inactive: -0.033
- log2 fold change (vorinostat): inactive: 0.058
- log2 fold change (silmitasertib): inactive: -0.007
- log2 fold change [2]: inactive: -0.025
- log2 fold change (entospletinib): inactive: -0.03

Target: HERC2 (UniProt O95714)
- log2 fold change [1]: inactive: 0.04
- log2 fold change (vorinostat): inactive: -0.006
- log2 fold change (silmitasertib): inactive: -0.076
- log2 fold change [2]: inactive: -0.009
- log2 fold change (entospletinib): inactive: 0.014

Target: HEBP2 (UniProt Q9Y5Z4)
- log2 fold change [1]: inactive: 0.005
- log2 fold change (vorinostat): inactive: 0.15
- log2 fold change (silmitasertib): inactive: -0.011
- log2 fold change [2]: inactive: -0.018
- log2 fold change (entospletinib): inactive: 0.015

Target: HLCS (UniProt P50747)
- log2 fold change [1]: inactive: -0.048
- log2 fold change (vorinostat): inactive: -0.054
- log2 fold change (silmitasertib): inactive: -0.012
- log2 fold change [2]: inactive: 0.004
- log2 fold change (entospletinib): inactive: 0.009

Target: HNRNPA1 (UniProt P09651)
- log2 fold change [1]: inactive: 0.038
- log2 fold change (vorinostat): inactive: 0.143
- log2 fold change (silmitasertib): inactive: 0.001
- log2 fold change [2]: inactive: 0.011
- log2 fold change (entospletinib): inactive: -0.036

Target: HMMR isoform 3 (UniProt O75330)
- log2 fold change [1]: inactive: 0.006
- log2 fold change (vorinostat): inactive: -0.143
- log2 fold change (silmitasertib): inactive: 0.011
- log2 fold change [2]: inactive: -0.007
- log2 fold change (entospletinib): inactive: 0.001

Target: HIBCH (UniProt Q6NVY1)
- log2 fold change [1]: inactive: 0.005
- log2 fold change (vorinostat): inactive: 0.108
- log2 fold change (silmitasertib): inactive: -0.017
- log2 fold change [2]: inactive: -0.003
- log2 fold change (entospletinib): inactive: -0.007
